In the supplement of paper PMC11438910:
The other results are listed elsewhere or left out. The signal is at background level for most entries.

Experiments:
Test in all cases: fluorescence intensity of antibody binding to polysaccharide-coupled beads; higher = stronger binding
[1] = biological target: pneumococcal polysaccharide Pn7A
[2] = biological target: pneumococcal polysaccharide Pn7B
[3] = biological target: pneumococcal polysaccharide Pn7C
[4] = biological target: pneumococcal polysaccharide Pn7F
[5] = biological target: pneumococcal polysaccharide Pn8
[6] = biological target: pneumococcal polysaccharide Pn9A
[7] = biological target: pneumococcal polysaccharide Pn9L
[8] = biological target: pneumococcal polysaccharide Pn9N
[9] = biological target: pneumococcal polysaccharide Pn9V
[10] = biological target: pneumococcal polysaccharide C-Poly-1
[11] = biological target: pneumococcal polysaccharide C-Poly-2
[12] = biological target: pneumococcal polysaccharide Pn1
[13] = biological target: pneumococcal polysaccharide Pn10A
[14] = biological target: pneumococcal polysaccharide Pn10B
[15] = antibody concentration 2.8593 ng/mL
[16] = antibody concentration 15.2894 ng/mL
[17] = antibody concentration 81.7561 ng/mL
[18] = antibody concentration 437.17 ng/mL
[19] = antibody concentration 2337.65 ng/mL
[20] = antibody concentration 12500 ng/mL
[21] = antibody concentration 0.1 ng/mL
[22] = antibody concentration 0.534724 ng/mL

B1: 4-173.2 (protein)
chain 1: QLQLQESGPGLVKPSETLSLTCAVSGGSINSNYWSWIRQPPGKGLDWIGRISGSGGSTDYNPSLKSRVTISTDTSKTQFSLKLRSVTAADTAVYYCGRGSYQIDYWGQGILVTVSS
chain 2: QAALTQPPSMSGSPGQSVTISCTGTSSDIGGYNRVSWYQQYPGKAPKLMIYEVSKRPSGVSDRFSGSKSGNTASLTISGLQAADEADYYCSSYAGSKALFGGGTRLTVL
Question: For B1, which fluorescence intensity [1, 15] is on record?
Answer: 20 MFI

Question: And the fluorescence intensity [1, 16]?
Answer: 20 MFI

Question: What about the fluorescence intensity [1, 17] of the same binder?
Answer: 21 MFI

Question: And the fluorescence intensity [1, 18]?
Answer: 23.2 MFI

Question: What about the fluorescence intensity [1, 19] of the same binder?
Answer: 53 MFI

Question: What about the fluorescence intensity [1, 20] of the same binder?
Answer: 440 MFI

Question: And the fluorescence intensity [2, 21]?
Answer: 17.5 MFI

Question: And the fluorescence intensity [2, 22]?
Answer: 15.5 MFI

Question: What about the fluorescence intensity [2, 15] of the same binder?
Answer: 17.8 MFI

Question: And the fluorescence intensity [2, 16]?
Answer: 14 MFI

Question: What about the fluorescence intensity [2, 17] of the same binder?
Answer: 17 MFI

Question: And the fluorescence intensity [2, 18]?
Answer: 16 MFI

Question: What about the fluorescence intensity [2, 19] of the same binder?
Answer: 23.8 MFI

Question: What about the fluorescence intensity [2, 20] of the same binder?
Answer: 70 MFI

Question: What about the fluorescence intensity [3, 21] of the same binder?
Answer: 16 MFI

Question: And the fluorescence intensity [3, 22]?
Answer: 15.5 MFI

Question: What about the fluorescence intensity [3, 15] of the same binder?
Answer: 14.5 MFI

Question: And the fluorescence intensity [3, 16]?
Answer: 16 MFI

Question: What about the fluorescence intensity [3, 17] of the same binder?
Answer: 16.5 MFI

Question: And the fluorescence intensity [3, 18]?
Answer: 17 MFI

Question: And the fluorescence intensity [3, 19]?
Answer: 20.5 MFI

Question: And the fluorescence intensity [3, 20]?
Answer: 57.5 MFI

Question: And the fluorescence intensity [4, 21]?
Answer: 14.5 MFI

Question: And the fluorescence intensity [4, 22]?
Answer: 16.5 MFI

Question: What about the fluorescence intensity [4, 15] of the same binder?
Answer: 15 MFI

Question: And the fluorescence intensity [4, 16]?
Answer: 17.8 MFI

Question: And the fluorescence intensity [4, 17]?
Answer: 17 MFI

Question: And the fluorescence intensity [4, 18]?
Answer: 19.5 MFI

Question: And the fluorescence intensity [4, 19]?
Answer: 42 MFI

Question: And the fluorescence intensity [4, 20]?
Answer: 293 MFI

Question: What about the fluorescence intensity [5, 21] of the same binder?
Answer: 22 MFI

Question: And the fluorescence intensity [5, 22]?
Answer: 21.5 MFI

Question: What about the fluorescence intensity [5, 15] of the same binder?
Answer: 22.5 MFI

Question: What about the fluorescence intensity [5, 16] of the same binder?
Answer: 21.8 MFI

Question: And the fluorescence intensity [5, 17]?
Answer: 22.8 MFI

Question: What about the fluorescence intensity [5, 18] of the same binder?
Answer: 27 MFI

Question: What about the fluorescence intensity [5, 19] of the same binder?
Answer: 33.2 MFI

Question: What about the fluorescence intensity [5, 20] of the same binder?
Answer: 46.5 MFI

Question: What about the fluorescence intensity [6, 21] of the same binder?
Answer: 19 MFI

Question: What about the fluorescence intensity [6, 22] of the same binder?
Answer: 20 MFI

Question: What about the fluorescence intensity [6, 15] of the same binder?
Answer: 18.5 MFI

Question: And the fluorescence intensity [6, 16]?
Answer: 20.5 MFI

Question: What about the fluorescence intensity [6, 17] of the same binder?
Answer: 19.2 MFI

Question: What about the fluorescence intensity [6, 18] of the same binder?
Answer: 20 MFI

Question: What about the fluorescence intensity [6, 19] of the same binder?
Answer: 25 MFI

Question: And the fluorescence intensity [6, 20]?
Answer: 69.8 MFI

Question: And the fluorescence intensity [7, 21]?
Answer: 18 MFI

Question: What about the fluorescence intensity [7, 22] of the same binder?
Answer: 17.5 MFI

Question: And the fluorescence intensity [7, 15]?
Answer: 18 MFI

Question: And the fluorescence intensity [7, 16]?
Answer: 18.2 MFI

Question: What about the fluorescence intensity [7, 17] of the same binder?
Answer: 18 MFI

Question: And the fluorescence intensity [7, 18]?
Answer: 17.8 MFI

Question: What about the fluorescence intensity [7, 19] of the same binder?
Answer: 21 MFI

Question: What about the fluorescence intensity [7, 20] of the same binder?
Answer: 47.2 MFI

Question: What about the fluorescence intensity [8, 21] of the same binder?
Answer: 15.5 MFI

Question: And the fluorescence intensity [8, 22]?
Answer: 16 MFI

Question: What about the fluorescence intensity [8, 15] of the same binder?
Answer: 14.5 MFI

Question: And the fluorescence intensity [8, 16]?
Answer: 15.5 MFI

Question: What about the fluorescence intensity [8, 17] of the same binder?
Answer: 17 MFI

Question: What about the fluorescence intensity [8, 18] of the same binder?
Answer: 16.5 MFI

Question: And the fluorescence intensity [8, 19]?
Answer: 22.5 MFI

Question: And the fluorescence intensity [8, 20]?
Answer: 63.5 MFI

Question: What about the fluorescence intensity [9, 21] of the same binder?
Answer: 15 MFI

Question: What about the fluorescence intensity [9, 22] of the same binder?
Answer: 15.5 MFI

Question: And the fluorescence intensity [9, 15]?
Answer: 15 MFI

Question: What about the fluorescence intensity [9, 16] of the same binder?
Answer: 15.5 MFI

Question: What about the fluorescence intensity [9, 17] of the same binder?
Answer: 15.5 MFI

Question: And the fluorescence intensity [9, 18]?
Answer: 16.5 MFI

Question: What about the fluorescence intensity [9, 19] of the same binder?
Answer: 18.5 MFI

Question: And the fluorescence intensity [9, 20]?
Answer: 23.5 MFI

B2: 3S41.1 (protein)
chain 1: EVQLVESGGGLVQPGGSLRLSCATSGFTFRNYWMYWFRQAPGKGLDWVSSISDSSSNTFYSDSVKGRFTISRDNAKNTLYLQMNSLRAEDTAVYYCARRPIAAATGVYWYFDLWGPGTPITVSS
chain 2: EIVMTQSPATLSLSPGERATLSCRASQNIGSNLAWYQQKPGRAPKLLIYDASSRATGIPDRFSASGSGTDFTLTISSLEPEDVGVYYCQQYNNWKIFGPGTKLEIK
Question: B2 was tested. Which fluorescence intensity [10, 21] did it give?
Answer: 27.2 MFI

Question: And the fluorescence intensity [10, 22]?
Answer: 27.5 MFI

Question: And the fluorescence intensity [10, 15]?
Answer: 26 MFI

Question: And the fluorescence intensity [10, 16]?
Answer: 28.5 MFI

Question: And the fluorescence intensity [10, 17]?
Answer: 27 MFI

Question: What about the fluorescence intensity [10, 18] of the same binder?
Answer: 29 MFI

Question: And the fluorescence intensity [10, 19]?
Answer: 39 MFI

Question: What about the fluorescence intensity [11, 21] of the same binder?
Answer: 20.8 MFI

Question: What about the fluorescence intensity [11, 22] of the same binder?
Answer: 21.5 MFI

Question: What about the fluorescence intensity [11, 15] of the same binder?
Answer: 20.5 MFI

Question: And the fluorescence intensity [11, 16]?
Answer: 22 MFI

Question: And the fluorescence intensity [11, 17]?
Answer: 20 MFI

Question: What about the fluorescence intensity [11, 18] of the same binder?
Answer: 23.5 MFI

Question: What about the fluorescence intensity [11, 19] of the same binder?
Answer: 32 MFI

Question: And the fluorescence intensity [12, 21]?
Answer: 13.5 MFI

Question: What about the fluorescence intensity [12, 22] of the same binder?
Answer: 13 MFI

Question: And the fluorescence intensity [12, 15]?
Answer: 13 MFI

Question: What about the fluorescence intensity [12, 16] of the same binder?
Answer: 14.5 MFI

Question: And the fluorescence intensity [12, 17]?
Answer: 12.8 MFI

Question: What about the fluorescence intensity [12, 18] of the same binder?
Answer: 14 MFI

Question: What about the fluorescence intensity [12, 19] of the same binder?
Answer: 16.5 MFI

Question: And the fluorescence intensity [13, 21]?
Answer: 25.5 MFI

Question: What about the fluorescence intensity [13, 22] of the same binder?
Answer: 26 MFI

Question: And the fluorescence intensity [13, 15]?
Answer: 26.5 MFI

Question: And the fluorescence intensity [13, 16]?
Answer: 26.8 MFI

Question: What about the fluorescence intensity [13, 17] of the same binder?
Answer: 26.5 MFI

Question: And the fluorescence intensity [13, 18]?
Answer: 27.5 MFI

Question: What about the fluorescence intensity [13, 19] of the same binder?
Answer: 27.5 MFI

Question: What about the fluorescence intensity [14, 21] of the same binder?
Answer: 24 MFI

Question: And the fluorescence intensity [14, 22]?
Answer: 25.5 MFI
